Reference: PubChem BioAssay AID504444 (National Center for Advancing Translational Sciences (NCATS), 2011)
The whole screen tested about 360,000 compounds, of which about 7,500 (2.1%) were called active. Inconclusive means that the source gave no clear call. Such entries were picked first, then a sample of the others. The call rests on the fitted dose curve; in most records, active means well fitted inhibition curve with a large enough effect; inconclusive means small, poorly fitted or top-dose-only effect, or effect the other way; inactive means flat fitted curve, though single readings scatter. Potencies beside an inconclusive call are fits to weak or partial responses and may not hold up.
Potency means the concentration at half of the fitted maximal effect.

Experiment: Nrf2 qHTS screen for inhibitors; further: nearly all actives have a fitted effect of over 60% in size
Conditions: A549 ARE-Fluc reporter, luciferase luminescence, 18-24 h; series mostly up to 46 µM
Summary of the method: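 Cells were seeded and rested 2 h, then exposed to compounds for 18-24 h. CellTiter-Fluor was read first as a viability measure. BugLite was added 15 min before the final luminescent read of ARE-luciferase activity in A549 cells.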
In the case of `CC1=C(C(=O)Nc2ccc(C)cc2C)C(c2ccccc2[N+](=O)[O-])n2ncc(C(=O)Nc3ccccc3)c2N1` (stereo not given), the Potency is reported as inconclusive: 20.6 µM [activator, partial curve]. With `COc1ccc2oc(C(=O)Nc3nccs3)c(C)c2c1` the Potency was inconclusive: 0.731 µM [activator, full curve]. With `COc1ccc(S(=O)(=O)n2cnc3cc(C)c(C)cc32)cc1` the Potency was “inactive”. For `CCOC(=O)C1CCCN(C(=O)c2ccc3c(c2)N(Cc2ccccc2)C(=O)c2ccccc2S3(=O)=O)C1` (stereo not given), the Potency was “inactive”. For `COc1ccc(C2CC(c3cccs3)=NN2C(=O)c2ccc(Br)o2)cc1` (stereo not given), the Potency was inconclusive: 29.1 µM [falling, single point]. In the case of `O=C(CSc1ccccn1)Nc1nc2c(ccc3ccccc32)s1`, the Potency is reported as inconclusive: 4.11 µM [activator, partial curve, poor fit]. For `COc1cccc(NC(=O)CSc2nc3ccccc3cc2Cc2ccccc2)c1`, the Potency was inconclusive: 10.3 µM [falling, partial curve, poor fit]. For `NC(=S)NN=C1C=CCCC1`, the Potency was “inactive”. With `CCOC(=O)c1cc(-c2cccnc2)nn1-c1ccccc1` the Potency was active: 11.6 µM. With `FC(F)(F)c1ccc(N2CCN(c3ncnc4c3nnn4Cc3ccccc3Cl)CC2)cc1` the Potency was inconclusive: 3.66 µM [falling, partial curve, poor fit]. In the case of `COC(=O)c1ccccc1S(=O)(=O)N1CCC(C(=O)OC(C)C(=O)N(C)Cc2ccccc2)CC1` (stereo not given), the Potency is reported as inconclusive: 8.2 µM [falling, partial curve, poor fit]. With `COCCn1c(-c2ccc(Br)cc2)nc2oc3cc(OC)ccc3c(=O)c2c1=O` the Potency was “inactive”. In the case of `O=[N+]([O-])c1ccc(N=NNc2ccc([N+](=O)[O-])cc2)cc1`, the Potency is reported as “inactive”. In the case of `CCn1c(SCc2ccccc2)nc2cc(S(N)(=O)=O)ccc21`, the Potency is reported as inconclusive: 8.2 µM [falling, partial curve, poor fit]. In the case of `COc1ccc(Br)cc1CNC(=O)CCCn1c(=O)c2cccn2c2ccccc21`, the Potency is reported as inconclusive: 4.61 µM [falling, partial curve, poor fit]. For `CCOC(=O)Cc1csc(NC(=O)c2csc3c2CCCC3)n1`, the Potency was active: 18.4 µM. In the case of `CCC1CN(C(=O)N2CCC(C(=O)NCCc3ccc(OC)cc3OC)CC2)c2ccccc2O1` (stereo not given), the Potency is reported as inconclusive: 18.4 µM [falling, partial curve, poor fit]. In the case of `COc1ccc(CNC(=O)CCCCCNc2nc(=S)[nH]c3ccccc23)cc1`, the Potency is reported as inconclusive: 29.1 µM [falling, single point]. For `COc1ccc(Cl)cc1N(C(=O)c1ccco1)C(C(=O)NC1CCCC1)c1cccnc1` (stereo not given), the Potency was “inactive”. With `Cc1csc(NC(=O)c2oc3ccccc3c2C)n1` the Potency was inconclusive: 6.51 µM [activator, partial curve]. For `Cc1ccc(-c2c[n+](Cc3cccc(Cl)c3)c3n2CCC3)cc1`, the Potency was inconclusive: 11.6 µM [falling, partial curve]. In the case of `O=C1NC(=Nc2ccccc2)S/C1=C\c1ccccc1`, the Potency is reported as inconclusive: 13 µM [activator, partial curve, poor fit]. In the case of `Cc1cc(C(=O)NCC2CCCCC2)ccc1[N+](=O)[O-]`, the Potency is reported as inconclusive: 20.6 µM [activator, partial curve, poor fit]. For `COc1cccc(N2CCN(C(=O)c3ccc(CSc4nc5ccncc5[nH]4)cc3)CC2)c1`, the Potency was inconclusive: 20.6 µM [falling, single point]. For `CCCC(=O)Nc1ccc2c(c1)COC2=O`, the Potency was inconclusive: 29.1 µM [activator, single point]. With `CC(C)c1ccc(NC(=O)N2CCCC2C(=O)Nc2ccc(-n3cnnn3)cc2)cc1` (stereo not given) the Potency was inconclusive: 29.1 µM [activator, single point]. In the case of `Cc1ccc(S(=O)(=O)n2nc(OC(=O)c3cccs3)cc2N)cc1`, the Potency is reported as inconclusive: 18.4 µM [falling, single point]. With `CCN(C(=O)Cc1c(C(=O)O)n(CC)c2ccccc12)c1cccc(C(F)(F)F)c1` the Potency was inconclusive: 1.03 µM [falling, full curve, poor fit]. In the case of `O=S(=O)(c1ccccc1)N1CCN(c2ncnc3sc(-c4ccccc4)cc23)CC1`, the Potency is reported as inconclusive: 2.31 µM [falling, partial curve, poor fit]. With `CCC(Oc1ccccc1F)C(=O)Nc1c(C(=O)c2ccccc2)oc2ccccc12` (stereo not given) the Potency was inconclusive: 16.4 µM [falling, single point]. With `O=C(Nc1ccc(Cl)cc1)C1CCN(c2nc3ccccc3n3cccc23)CC1` the Potency was “inactive”. For `CC(C)(C)OC(=O)N1CCC(c2c(C(=O)NCc3ccc4c(c3)OCO4)cnn2-c2ccc(F)cc2F)CC1`, the Potency was inconclusive: 16.4 µM [falling, single point]. With `COc1cccc(S(=O)(=O)N2CCN(c3nc(-c4cccs4)nc4ccccc34)CC2)c1` the Potency was inconclusive: 2.06 µM [falling, full curve, poor fit]. For `O=C(c1ccccc1)N1CCCCC(Cl)C1=O` (stereo not given), the Potency was “inactive”. In the case of `COc1ccc(-c2csc(NC(=O)c3ccccc3F)c2C(=O)O)cc1`, the Potency is reported as active: 13 µM. In the case of `COc1cccc(/C=C/C(=O)N(C)CC(=O)Nc2ccc(Cl)c(C(F)(F)F)c2)c1`, the Potency is reported as inconclusive: 29.1 µM [falling, single point]. With `Cc1ccc(NC(=O)Nc2cccnc2)cc1NC(=O)Nc1cccnc1` the Potency was active: 18.4 µM. For `Cc1ccc(O)c(-c2cc(C(=O)Nc3ccc(S(=O)(=O)Nc4nc(C)cc(C)n4)cc3)[nH]n2)c1`, the Potency was inconclusive: 25.9 µM [falling, partial curve, poor fit]. With `CCc1ccc(-n2c(C)nnc2SCc2nc(-c3ccc(OC)cc3)no2)cc1` the Potency was inconclusive: 20.6 µM [falling, partial curve]. For `Cn1c(N)c(C(=O)COC(=O)c2ccc([N+](=O)[O-])o2)c(=O)n(C)c1=O`, the Potency was inconclusive: 6.51 µM [activator, single point]. In the case of `COc1ccc2nc(SCc3cccnc3)c(C#N)cc2c1`, the Potency is reported as inconclusive: 3.26 µM [activator, full curve]. For `O=C1CC(=O)NC(SCC(=O)Nc2ccccc2[N+](=O)[O-])=N1`, the Potency was inconclusive: 0.517 µM [activator, full curve, poor fit]. In the case of `COc1ccc(CCNC(=O)c2ccco2)cc1`, the Potency is reported as inconclusive: 18.4 µM [activator, partial curve]. In the case of `COc1ccc(NC(=O)c2ccc(Cn3cc(Cl)cn3)cc2)cc1`, the Potency is reported as “inactive”. With `COc1ccc(CN(C)CC(=O)Nc2sc3c(c2C#N)CCC3)cc1OC` the Potency was inconclusive: 23.1 µM [falling, partial curve, poor fit]. For `O=C1C2C(C(=O)N1/N=C/c1cccc([N+](=O)[O-])c1)C1C=CC2C12CC2` (stereo not given), the Potency was inconclusive: 13 µM [activator, partial curve]. For `CC1=C/C(=C\c2ccc(Br)o2)C(=O)O1`, the Potency was “inactive”. In the case of `CN(N=Nc1ccc([N+](=O)[O-])cc1)c1ccccc1`, the Potency is reported as inconclusive: 5.17 µM [activator, full curve]. In the case of `CCOc1ccc(C(=S)NC2CCCCC2)cc1OC`, the Potency is reported as inconclusive: 0.0651 µM [falling, full curve, poor fit]. With `C=CCC[C@@H](Cc1ccc(F)cc1)C(=O)OC[C@H](C)NC(=O)[C@H](CC=C)CC(=O)N(CCO)Cc1ccccc1` the Potency was inconclusive: 13 µM [falling, single point]. With `COc1ccc(CNc2nc3c(c(=O)n(Cc4ccc(Cl)cc4)c(=O)n3C)n2C)cc1` the Potency was active: 9.2 µM. With `Cc1ccc(C2(C)NC(=O)N(CC(=O)Nc3ccc(Cl)c(S(=O)(=O)N4CCCCC4)c3)C2=O)cc1` (stereo not given) the Potency was inconclusive: 29.1 µM [falling, single point]. For `COc1cc(NC(=O)c2cccs2)c(C(=O)OCC(=O)NCc2ccco2)cc1OC`, the Potency was inconclusive: 20.6 µM [falling, single point]. In the case of `Cc1cc2c(ncn2Cc2ccccc2)c([N+](=O)[O-])c1C`, the Potency is reported as inconclusive: 7.31 µM [falling, partial curve]. In the case of `CCCCCc1ccc(OCCC[n+]2ccccc2)c(CCCCC)c1`, the Potency is reported as active: 13 µM. With `Cc1ccc(-n2cccn2)c(CN2CCCC(C(=O)c3sccc3C)C2)c1` (stereo not given) the Potency was inconclusive: 29.1 µM [falling, single point]. In the case of `COc1cc(C(=O)NCC(c2cccnc2)N2CCN(c3ccc(F)cc3)CC2)cc(OC)c1OC` (stereo not given), the Potency is reported as inconclusive: 29.1 µM [falling, single point]. For `COc1ccccc1CNC(=O)CSC1=NCCS1`, the Potency was inconclusive: 14.6 µM [activator, partial curve, poor fit]. For `Cc1cccc(-c2nc3c(C#N)c[nH]n3c2NC2CCCCC2)c1`, the Potency was inconclusive: 32.6 µM [falling, single point]. For `COc1cc(OC)c(C(=O)Nc2ccc(S(=O)(=O)N3CCCCC3)cc2)cc1OC`, the Potency was inconclusive: 1.3 µM [falling, partial curve]. For `CCn1c(SCc2ccc(C(=O)Nc3cc(C)cc(C)c3)cc2)nnc1-c1ccncc1`, the Potency was inconclusive: 23.1 µM [falling, partial curve]. With `c1ccc(-n2cnc3cc(NCc4ccco4)ccc32)cc1` the Potency was inconclusive: 14.6 µM [activator, partial curve]. In the case of `O=C(Nc1sc2c(c1C(=O)O)CCC2)c1ccccc1Cl`, the Potency is reported as inconclusive: 25.9 µM [falling, single point]. With `Cc1ccc2[nH]cc(C(=O)NCc3cccs3)c(=O)c2c1` the Potency was inconclusive: 20.6 µM [falling, partial curve, poor fit]. In the case of `Cc1ccc(-c2noc(CN(C3CCCCC3)S(=O)(=O)c3ccc(C)cc3)n2)cc1`, the Potency is reported as “inactive”.
